Laboratory results from the supplement of paper PMC10849652.
The list shows a part of the results.

Protein sequences, listed by entry. Tags and fused reporters are not part of them. Lines headed by an entry give the natural chain unless they say otherwise; changes in a name come on top.
UniProt Q9UIC8: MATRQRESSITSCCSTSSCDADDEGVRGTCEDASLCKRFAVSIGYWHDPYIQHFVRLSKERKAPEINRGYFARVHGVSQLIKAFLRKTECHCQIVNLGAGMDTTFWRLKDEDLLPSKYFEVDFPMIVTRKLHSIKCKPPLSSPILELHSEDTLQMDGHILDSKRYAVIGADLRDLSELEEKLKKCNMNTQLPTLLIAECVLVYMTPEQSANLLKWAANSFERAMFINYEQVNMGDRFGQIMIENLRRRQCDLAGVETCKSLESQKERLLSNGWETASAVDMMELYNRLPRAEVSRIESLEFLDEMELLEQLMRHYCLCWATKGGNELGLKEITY
UniProt Q6UWP7: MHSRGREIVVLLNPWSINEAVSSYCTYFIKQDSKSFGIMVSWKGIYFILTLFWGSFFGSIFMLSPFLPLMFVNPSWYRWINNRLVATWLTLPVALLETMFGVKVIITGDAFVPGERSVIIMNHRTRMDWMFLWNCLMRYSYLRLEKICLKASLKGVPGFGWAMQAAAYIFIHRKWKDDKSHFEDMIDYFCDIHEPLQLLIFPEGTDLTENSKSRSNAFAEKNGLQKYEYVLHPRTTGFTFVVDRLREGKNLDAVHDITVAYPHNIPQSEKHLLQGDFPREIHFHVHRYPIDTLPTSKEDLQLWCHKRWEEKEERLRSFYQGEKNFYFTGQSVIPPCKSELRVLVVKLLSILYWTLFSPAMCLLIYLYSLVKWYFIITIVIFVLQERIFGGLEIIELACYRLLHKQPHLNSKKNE
UniProt Q9Y2Q5, whole entry, looked up: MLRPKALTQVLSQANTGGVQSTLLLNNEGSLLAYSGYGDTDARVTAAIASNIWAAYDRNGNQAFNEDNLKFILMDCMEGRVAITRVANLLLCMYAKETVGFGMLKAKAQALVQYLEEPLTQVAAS
UniProt P01130: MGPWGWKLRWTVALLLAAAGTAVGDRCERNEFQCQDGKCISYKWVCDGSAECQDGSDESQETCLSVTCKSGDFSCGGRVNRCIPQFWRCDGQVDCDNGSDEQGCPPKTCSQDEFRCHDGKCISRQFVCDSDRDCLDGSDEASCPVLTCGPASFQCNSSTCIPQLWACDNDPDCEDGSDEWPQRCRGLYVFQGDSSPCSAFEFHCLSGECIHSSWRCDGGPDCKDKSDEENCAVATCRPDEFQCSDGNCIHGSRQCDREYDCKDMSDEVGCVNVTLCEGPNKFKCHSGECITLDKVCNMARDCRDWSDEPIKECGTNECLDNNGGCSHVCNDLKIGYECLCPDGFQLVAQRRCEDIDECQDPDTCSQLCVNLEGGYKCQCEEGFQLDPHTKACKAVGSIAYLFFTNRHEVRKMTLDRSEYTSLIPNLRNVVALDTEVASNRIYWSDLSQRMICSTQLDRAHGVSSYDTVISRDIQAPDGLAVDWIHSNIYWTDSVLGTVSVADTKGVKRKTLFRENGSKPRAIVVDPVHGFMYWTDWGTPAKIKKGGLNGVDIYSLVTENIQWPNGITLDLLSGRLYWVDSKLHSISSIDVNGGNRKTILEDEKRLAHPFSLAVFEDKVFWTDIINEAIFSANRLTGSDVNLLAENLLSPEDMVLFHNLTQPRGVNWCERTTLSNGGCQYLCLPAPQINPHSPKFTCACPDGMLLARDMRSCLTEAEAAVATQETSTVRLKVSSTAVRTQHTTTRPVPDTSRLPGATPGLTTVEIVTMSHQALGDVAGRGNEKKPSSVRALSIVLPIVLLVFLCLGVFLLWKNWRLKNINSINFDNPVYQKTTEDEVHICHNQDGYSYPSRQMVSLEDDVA
UniProt Q12907: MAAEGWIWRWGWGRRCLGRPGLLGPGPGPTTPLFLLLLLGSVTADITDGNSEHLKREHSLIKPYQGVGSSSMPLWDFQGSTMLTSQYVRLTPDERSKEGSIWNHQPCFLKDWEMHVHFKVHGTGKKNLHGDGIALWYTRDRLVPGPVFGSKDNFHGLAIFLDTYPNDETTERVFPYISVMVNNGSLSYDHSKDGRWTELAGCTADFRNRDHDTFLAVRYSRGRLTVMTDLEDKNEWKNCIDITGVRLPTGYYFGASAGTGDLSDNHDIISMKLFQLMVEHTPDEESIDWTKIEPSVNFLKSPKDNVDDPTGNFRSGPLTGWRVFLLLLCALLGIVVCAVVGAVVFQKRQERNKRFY
UniProt E9PP15: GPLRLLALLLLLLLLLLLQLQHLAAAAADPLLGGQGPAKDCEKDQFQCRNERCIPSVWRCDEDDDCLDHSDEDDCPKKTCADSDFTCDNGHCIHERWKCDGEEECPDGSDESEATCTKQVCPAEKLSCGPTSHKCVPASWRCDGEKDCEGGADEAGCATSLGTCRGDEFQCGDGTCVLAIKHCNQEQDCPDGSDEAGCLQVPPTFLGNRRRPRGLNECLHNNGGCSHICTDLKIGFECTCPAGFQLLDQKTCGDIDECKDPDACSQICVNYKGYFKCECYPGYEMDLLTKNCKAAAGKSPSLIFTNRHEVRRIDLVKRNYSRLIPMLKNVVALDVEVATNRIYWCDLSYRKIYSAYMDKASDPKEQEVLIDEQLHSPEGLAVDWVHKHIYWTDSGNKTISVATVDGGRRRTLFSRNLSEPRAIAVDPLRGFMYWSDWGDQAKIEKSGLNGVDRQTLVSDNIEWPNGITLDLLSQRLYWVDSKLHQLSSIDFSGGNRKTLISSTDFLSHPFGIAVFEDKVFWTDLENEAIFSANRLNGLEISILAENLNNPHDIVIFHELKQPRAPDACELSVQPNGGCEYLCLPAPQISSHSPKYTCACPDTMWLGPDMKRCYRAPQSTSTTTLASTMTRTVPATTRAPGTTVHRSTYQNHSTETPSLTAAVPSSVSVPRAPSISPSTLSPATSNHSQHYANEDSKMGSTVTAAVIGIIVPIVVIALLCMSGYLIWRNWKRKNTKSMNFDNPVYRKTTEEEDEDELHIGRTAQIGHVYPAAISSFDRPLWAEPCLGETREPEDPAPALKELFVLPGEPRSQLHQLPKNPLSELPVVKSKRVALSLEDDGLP
UniProt P02545: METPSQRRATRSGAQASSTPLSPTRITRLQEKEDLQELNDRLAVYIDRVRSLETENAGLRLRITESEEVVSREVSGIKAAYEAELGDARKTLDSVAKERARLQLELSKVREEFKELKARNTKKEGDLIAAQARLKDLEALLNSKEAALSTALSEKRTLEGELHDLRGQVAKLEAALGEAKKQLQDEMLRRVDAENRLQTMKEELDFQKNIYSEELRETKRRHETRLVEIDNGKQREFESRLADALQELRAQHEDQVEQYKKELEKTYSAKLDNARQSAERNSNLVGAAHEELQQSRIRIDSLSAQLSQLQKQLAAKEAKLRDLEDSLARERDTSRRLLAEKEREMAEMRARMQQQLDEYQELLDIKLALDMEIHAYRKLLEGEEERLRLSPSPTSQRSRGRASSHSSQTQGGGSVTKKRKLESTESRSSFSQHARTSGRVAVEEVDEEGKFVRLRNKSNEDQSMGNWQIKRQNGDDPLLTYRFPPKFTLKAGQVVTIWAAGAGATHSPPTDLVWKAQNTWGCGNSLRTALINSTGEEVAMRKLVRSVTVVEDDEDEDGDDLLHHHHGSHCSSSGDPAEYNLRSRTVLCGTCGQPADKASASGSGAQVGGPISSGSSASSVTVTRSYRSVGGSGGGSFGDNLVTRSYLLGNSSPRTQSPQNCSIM
UniProt Q71RC2, whole entry, looked up: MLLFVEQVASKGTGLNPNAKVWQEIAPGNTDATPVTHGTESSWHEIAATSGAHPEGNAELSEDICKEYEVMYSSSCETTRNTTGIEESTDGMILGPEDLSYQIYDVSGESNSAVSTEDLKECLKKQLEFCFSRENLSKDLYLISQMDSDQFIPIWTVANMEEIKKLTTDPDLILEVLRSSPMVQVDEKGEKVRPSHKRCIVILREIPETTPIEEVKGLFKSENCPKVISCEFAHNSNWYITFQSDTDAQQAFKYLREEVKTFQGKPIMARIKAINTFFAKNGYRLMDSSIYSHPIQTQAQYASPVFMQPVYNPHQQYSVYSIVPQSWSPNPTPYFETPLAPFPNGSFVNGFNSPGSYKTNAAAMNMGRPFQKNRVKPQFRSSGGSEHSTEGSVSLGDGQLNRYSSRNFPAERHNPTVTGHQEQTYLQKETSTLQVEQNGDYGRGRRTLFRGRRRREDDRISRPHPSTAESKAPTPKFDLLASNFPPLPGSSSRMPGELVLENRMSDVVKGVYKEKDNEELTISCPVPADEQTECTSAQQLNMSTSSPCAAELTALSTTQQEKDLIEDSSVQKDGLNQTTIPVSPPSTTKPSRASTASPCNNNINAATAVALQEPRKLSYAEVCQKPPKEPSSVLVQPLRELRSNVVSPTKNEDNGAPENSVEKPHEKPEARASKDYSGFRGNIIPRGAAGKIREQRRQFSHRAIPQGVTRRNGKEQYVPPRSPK
UniProt Q9BT23: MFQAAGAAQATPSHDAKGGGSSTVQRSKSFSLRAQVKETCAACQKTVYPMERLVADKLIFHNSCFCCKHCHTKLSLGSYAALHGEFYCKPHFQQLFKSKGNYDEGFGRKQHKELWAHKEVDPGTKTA
UniProt Q13094: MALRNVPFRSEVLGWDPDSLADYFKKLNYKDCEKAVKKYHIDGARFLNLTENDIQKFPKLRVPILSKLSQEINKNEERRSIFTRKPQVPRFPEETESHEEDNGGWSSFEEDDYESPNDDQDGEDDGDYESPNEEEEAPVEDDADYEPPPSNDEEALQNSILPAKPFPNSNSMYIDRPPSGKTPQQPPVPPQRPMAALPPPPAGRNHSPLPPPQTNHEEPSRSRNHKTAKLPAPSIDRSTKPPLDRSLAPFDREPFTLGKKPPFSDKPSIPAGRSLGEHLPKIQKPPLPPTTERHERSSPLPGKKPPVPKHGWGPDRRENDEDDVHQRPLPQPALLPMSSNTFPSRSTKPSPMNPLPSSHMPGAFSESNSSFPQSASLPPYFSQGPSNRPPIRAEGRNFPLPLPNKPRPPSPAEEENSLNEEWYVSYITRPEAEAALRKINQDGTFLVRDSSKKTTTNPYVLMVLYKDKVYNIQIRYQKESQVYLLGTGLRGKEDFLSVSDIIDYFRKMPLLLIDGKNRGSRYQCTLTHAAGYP
UniProt Q96GY3: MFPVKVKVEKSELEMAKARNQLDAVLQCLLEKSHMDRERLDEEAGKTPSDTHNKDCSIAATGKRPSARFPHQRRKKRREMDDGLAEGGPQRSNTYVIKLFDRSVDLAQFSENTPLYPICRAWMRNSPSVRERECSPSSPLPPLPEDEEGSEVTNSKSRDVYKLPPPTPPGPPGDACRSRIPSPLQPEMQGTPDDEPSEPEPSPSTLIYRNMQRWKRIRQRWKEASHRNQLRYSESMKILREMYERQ
UniProt Q7Z4F1: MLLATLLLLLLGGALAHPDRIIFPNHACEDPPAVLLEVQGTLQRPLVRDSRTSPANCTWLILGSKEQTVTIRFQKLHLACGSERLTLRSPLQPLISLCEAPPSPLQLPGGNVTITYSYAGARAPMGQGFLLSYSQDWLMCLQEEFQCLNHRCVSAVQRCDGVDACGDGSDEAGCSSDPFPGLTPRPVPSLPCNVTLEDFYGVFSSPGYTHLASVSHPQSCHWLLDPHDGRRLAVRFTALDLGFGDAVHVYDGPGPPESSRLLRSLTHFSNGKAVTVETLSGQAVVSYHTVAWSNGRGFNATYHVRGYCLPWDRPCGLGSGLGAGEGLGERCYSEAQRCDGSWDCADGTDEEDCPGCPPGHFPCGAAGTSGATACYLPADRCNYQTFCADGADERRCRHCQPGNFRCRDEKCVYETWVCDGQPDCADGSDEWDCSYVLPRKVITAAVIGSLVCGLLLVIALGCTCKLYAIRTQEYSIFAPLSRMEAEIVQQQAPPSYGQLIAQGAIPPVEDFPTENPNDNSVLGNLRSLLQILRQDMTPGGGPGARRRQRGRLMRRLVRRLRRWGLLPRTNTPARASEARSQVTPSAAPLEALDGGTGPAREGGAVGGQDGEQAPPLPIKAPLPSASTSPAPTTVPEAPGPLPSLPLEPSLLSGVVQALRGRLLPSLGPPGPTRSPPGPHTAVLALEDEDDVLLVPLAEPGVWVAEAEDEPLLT
UniProt Q8TCA0: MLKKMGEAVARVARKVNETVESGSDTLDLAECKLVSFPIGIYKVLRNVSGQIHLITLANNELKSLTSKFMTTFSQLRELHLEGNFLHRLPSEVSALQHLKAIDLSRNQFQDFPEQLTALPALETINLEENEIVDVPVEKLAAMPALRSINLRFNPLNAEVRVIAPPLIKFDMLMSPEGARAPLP
UniProt P11279: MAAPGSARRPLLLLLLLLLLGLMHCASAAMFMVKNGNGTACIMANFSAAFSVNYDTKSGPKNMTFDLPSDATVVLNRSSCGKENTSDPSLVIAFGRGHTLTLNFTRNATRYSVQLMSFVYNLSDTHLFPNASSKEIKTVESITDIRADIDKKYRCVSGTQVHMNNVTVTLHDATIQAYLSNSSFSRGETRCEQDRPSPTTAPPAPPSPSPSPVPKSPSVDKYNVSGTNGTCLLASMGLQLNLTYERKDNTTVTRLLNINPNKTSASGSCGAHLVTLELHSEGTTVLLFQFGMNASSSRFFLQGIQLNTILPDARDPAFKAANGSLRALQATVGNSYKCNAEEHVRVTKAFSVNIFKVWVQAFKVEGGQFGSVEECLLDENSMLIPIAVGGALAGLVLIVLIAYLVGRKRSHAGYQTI

Legend:
Test in all cases: log2 fold change, soluble protein after heating vs DMSO (PISA); higher = thermal stabilisation; K562 cells, 10 uM, 30 min; active = over 0.2 and 3.5 SD of the protein, either way, in both replicates (recomputed)
[1] = compound: CC1=C(C=C(C=C1)NC(=O)C2=CC(=CC=C2)C(C)(C)C#N)NC3=CC4=C(C=C3)N=CN(C4=O)C
Summary of the method: (§1)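 K562 cells (2×10^6 cells/mL) were treated with 10 μM compound for 30 min, and aliquots were heated for 3 min over 48°C-58°C. Pooled aliquots were extracted in PBS with 0.5% NP-40 at 4°C, and the supernatant after 21,000xg for 90 min was measured by TMTpro 16plex LC-MS/MS with channel sums equalised. Reported thermal stability, relative to control samples and from duplicates, is a log2 fold change.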

[2] = compound: CC1=C(C=C(C=C1)NC(=O)C2=CC(=CC=C2)N(C)C)NC(=O)C3=CC=C(C=C3)O
Summary of the method: as §1

[3] = compound: CC1=CC=C(C=C1)SC2=C3C=C(SC3=CN=C2)C(=O)N
Summary of the method: as §1

[4] = compound: CC1=NC(=CC=C1)C2=C(N=C(N2)C(C)(C)C)C3=CC4=NC=CN=C4C=C3
Summary of the method: as §1

Nexturastat A = compound: CCCCN(Cc1ccc(C(=O)NO)cc1)C(=O)Nc1ccccc1 [Nexturastat A]
Summary of the method: as §1

vemurafenib = compound: CCCS(=O)(=O)Nc1ccc(F)c(C(=O)c2c[nH]c3ncc(-c4ccc(Cl)cc4)cc23)c1F [vemurafenib]
Summary of the method: as §1

[5] = compound: CCCS(=O)(=O)Nc1ccc(F)c(C(=O)c2c[nH]c3ncc(Cl)cc23)c1F
Summary of the method: as §1

[6] = compound: CCCc1cc(C)[nH]c(=O)c1CNC(=O)c1cc(-c2ccnc(N3CCN(C)CC3)c2)cc2c1cnn2C(C)C
Summary of the method: as §1

givinostat = compound: CCN(CC)Cc1ccc2cc(COC(=O)Nc3ccc(C(=O)NO)cc3)ccc2c1 [givinostat]
Summary of the method: as §1

barasertib = compound: CCN(CCCOc1ccc2c(Nc3cc(CC(=O)Nc4cccc(F)c4)[nH]n3)ncnc2c1)CCOP(=O)(O)O [barasertib]
Summary of the method: as §1

Measured: log2 fold change

L2HGDH (UniProt Q9H9P8)
inactive: [1] 0.03 | [2] 0.009 | [3] 0.021 | [4] -0.046 | Nexturastat A -0.102 | vemurafenib 0.015 | [5] -0.042 | [6] -0.081 | givinostat -0.016 | barasertib 0.011

LCMT1 (UniProt Q9UIC8)
inactive: [1] -0.009 | [2] 0.017 | [3] -0.007 | [4] 0.028 | Nexturastat A -0.047 | vemurafenib 0.099 | [5] 0.014 | [6] 0.015 | givinostat -0.053 | barasertib 0.005

LNPK (UniProt Q9C0E8)
inactive: [1] -0.011 | [2] 0.01 | [3] -0.038 | [4] 0.016 | Nexturastat A -0.023 | vemurafenib -0.042 | [5] -0.027 | [6] -0.028 | givinostat -0.018 | barasertib 0.012

LCLAT1 (UniProt Q6UWP7)
inactive: [1] -0.019 | [2] 0.016 | [3] -0.055 | [4] -0.006 | Nexturastat A -0.034 | vemurafenib -0.04 | [5] -0.031 | [6] 0.011 | givinostat 0.049 | barasertib 0.031

KTN1 (UniProt Q86UP2)
inactive: [1] -0.071 | [2] -0.051 | [3] 0.014 | [4] -0.002 | Nexturastat A 0.141 | vemurafenib 0.012 | [5] 0.027 | [6] 0.034 | givinostat 0.022 | barasertib 0.033

LAMTOR2 (UniProt Q9Y2Q5)
inactive: [1] 0.043 | [2] 0.013 | [3] -0.034 | [4] -0.073 | Nexturastat A 0.101 | vemurafenib -0.095 | [5] 0.005 | [6] -0.023 | givinostat -0.042 | barasertib -0.005

LAMTOR4 (UniProt Q0VGL1)
inactive: [1] 0.016 | [2] 0.006 | [3] -0.012 | [4] 0.034 | Nexturastat A 0.167 | vemurafenib -0.024 | [5] -0.024 | [6] -0.092 | givinostat 0.006 | barasertib -0.032

LARS (UniProt Q9P2J5)
inactive: [1] 0.015 | [2] 0.022 | [3] -0.038 | [4] -0.067 | Nexturastat A 0.308 | vemurafenib -0.019 | [5] -0.038 | [6] 0.15 | givinostat 0.073 | barasertib -0.026

LETM1 (UniProt O95202)
inactive: [1] 0.036 | [2] -0.01 | [3] 0.036 | [4] 0.045 | Nexturastat A -0.091 | vemurafenib 0.012 | [5] 0.025 | [6] 0.008 | givinostat -0.018 | barasertib 0.009

LDLR (UniProt P01130)
inactive: [1] -0.063 | [2] 0.006 | [3] 0.006 | [4] 0.01 | Nexturastat A 0 | vemurafenib -0.022 | [5] -0.073 | [6] -0.018 | givinostat -0.03 | barasertib 0.019

LMAN2 (UniProt Q12907)
inactive: [1] -0.021 | [2] 0.03 | [3] 0.084 | [4] 0.054 | Nexturastat A -0.026 | vemurafenib -0.006 | [5] -0.025 | [6] -0.072 | givinostat -0.013 | barasertib 0

LMTK2 (UniProt Q8IWU2)
inactive: [1] 0.058 | [2] -0.03 | [3] -0.078 | [4] -0.036 | Nexturastat A 0.189 | vemurafenib -0.053 | [5] -0.249 | [6] -0.031 | givinostat 0.075 | barasertib -0.028

KYNU (UniProt Q16719)
inactive: [1] -0.028 | [2] 0.028 | [3] 0.003 | [4] -0.062 | Nexturastat A -0.002 | vemurafenib -0.038 | [5] -0.014 | [6] -0.049 | givinostat 0.018 | barasertib 0.007

LRP8 (UniProt E9PP15)
inactive: [1] 0.031 | [2] -0.06 | [3] 0.013 | [4] -0.226 | Nexturastat A 0.16 | vemurafenib 0.015 | [5] -0.063 | [6] -0.008 | givinostat 0.33 | barasertib 0.073

LPGAT1 (UniProt Q92604)
inactive: [1] -0.077 | [2] 0 | [3] 0.034 | [4] 0.077 | Nexturastat A 0.036 | vemurafenib 0.018 | [5] 0.086 | [6] -0.033 | givinostat 0.064 | barasertib 0.068

LMNA (UniProt P02545)
inactive: [1] -0.023 | [2] 0.095 | [3] -0.026 | [4] -0.002 | Nexturastat A -0.022 | vemurafenib 0.088 | [5] 0.014 | [6] -0.027 | givinostat 0.014 | barasertib -0.004

LRRC57 (UniProt Q8N9N7)
inactive: [1] 0.015 | [2] 0.041 | [3] 0.016 | [4] 0.028 | Nexturastat A -0.013 | vemurafenib 0.03 | [5] -0.001 | [6] -0.039 | givinostat -0.002 | barasertib 0.005

LCP1 (UniProt P13796)
inactive: [1] 0.009 | [2] 0.008 | [3] -0.024 | [4] 0.003 | Nexturastat A -0.046 | vemurafenib -0.011 | [5] -0.049 | [6] -0.021 | givinostat -0.026 | barasertib 0

LIG1 (UniProt P18858)
inactive: [1] -0.034 | [2] -0.1 | [3] 0.079 | [4] 0.085 | Nexturastat A -0.034 | vemurafenib 0.063 | [5] 0.09 | [6] 0.016 | givinostat 0.129 | barasertib 0.051

LARP4 isoform 4 (UniProt Q71RC2)
inactive: [1] 0.066 | [2] 0.005 | [3] -0.041 | [4] -0.002 | Nexturastat A 0.251 | vemurafenib -0.017 | [5] 0.018 | [6] 0.054 | givinostat 0.04 | barasertib -0.053

LMNB2 (UniProt Q03252)
inactive: [1] -0.022 | [2] 0.015 | [3] -0.025 | [4] 0.063 | Nexturastat A -0.04 | vemurafenib 0.019 | [5] 0.045 | [6] -0.014 | givinostat 0.047 | barasertib 0.039

LHPP (UniProt Q9H008)
inactive: [1] 0.01 | [2] 0.008 | [3] 0.048 | [4] 0.05 | Nexturastat A 0.081 | vemurafenib -0.055 | [5] -0.041 | [6] 0.003 | givinostat -0.027 | barasertib -0.081

LARGE2 (UniProt Q8N3Y3)
inactive: [1] -0.018 | [4] 0.022

LIMD2 (UniProt Q9BT23)
inactive: [1] -0.033 | [3] 0.022 | [5] -0.144 | givinostat 0.159

LCP2 (UniProt Q13094)
inactive: [1] 0 | [2] -0.001 | [4] 0.045 | Nexturastat A 0.062 | vemurafenib 0.034 | givinostat -0.013 | barasertib 0.066

LEG1 (UniProt Q6P5S2)
inactive: [1] -0.234 | [3] 0.167 | vemurafenib 0.304 | [5] -0.269 | [6] -0.46 | barasertib 0.075

Pulled one by one from the entries so far, 2 records:
LCP2 (UniProt Q13094)
inactive: [1] 0 | [2] -0.001 | [4] 0.045 | Nexturastat A 0.062 | vemurafenib 0.034 | givinostat -0.013 | barasertib 0.066

LARGE2 (UniProt Q8N3Y3)
inactive: [1] -0.018 | [4] 0.022

(continued)

LLGL1 (UniProt Q15334)
inactive: [1] -0.001 | [3] -0.029 | [4] 0.001 | Nexturastat A 0.044 | [5] 0.043 | givinostat -0.031

LIN37 (UniProt Q96GY3)
inactive: [1] -0.036 | [3] 0.004 | [4] 0.01 | [5] -0.018 | givinostat 0.453

LPL (UniProt P06858)
inactive: [1] 0.011 | [3] -0.047 | [4] 0.046 | vemurafenib -0.141 | [5] -0.122 | [6] -0.229 | givinostat 0.049

LRP10 (UniProt Q7Z4F1)
inactive: [1] -0.16 | [2] -0.38 | [3] 0.036 | [4] -0.054 | Nexturastat A 0.123 | [5] 0 | [6] -0.253 | barasertib -0.058

LRRC20 (UniProt Q8TCA0)
inactive: [1] -0.025 | [2] -0.142 | [3] -0.064 | [4] 0.002 | Nexturastat A -0.11 | vemurafenib 0.009 | [5] -0.043 | [6] 0.012 | givinostat -0.055 | barasertib 0.007

LRFN1 (UniProt Q9P244)
inactive: [1] 0.052 | [2] 0.076 | [3] 0.02 | [4] -0.101 | Nexturastat A 0.241 | vemurafenib -0.031 | [5] 0.054 | givinostat -0.025 | barasertib 0.037

LRP6 (UniProt O75581)
inactive: [1] 0.07 | [3] 0 | [4] 0.077 | [5] -0.067 | givinostat -0.12 | barasertib 0.001

LAMP1 (UniProt P11279)
inactive: [1] -0.013 | [2] -0.034 | [3] -0.005 | [4] -0.005 | Nexturastat A -0.076 | vemurafenib 0.009 | [5] 0.007 | [6] -0.04 | givinostat 0.023 | barasertib -0.011
